Assay results reported in the supplement of paper PMC10735217.
Structures can show the parent of a compound that is named as a salt. Some of the results follow. Repeats in this data set agree poorly, so a single value says little.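 In a drug-repurposing library screen, luminescence reads luciferase driven by eight TEAD-binding elements, stably integrated into human kidney-derived cells. Compounds scoring over five robust Z scores above the plate mean are called hits.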

System: HEK293A TEAD-LUC reporter
Test: TEAD-luciferase reporter activity (YAP activation), robust Z score vs plate; higher = stronger YAP/TEAD activation
Conditions: 24 h

SMILES	TEAD-luciferase reporter activity (compound concentration: 200 nM)	TEAD-luciferase reporter activity (compound concentration: 2 uM)	TEAD-luciferase reporter activity (compound concentration: 10 uM)
COc1ccccc1N1CCN(C(=O)Cn2c(=O)[nH]c3ccccc3c2=O)CC1	inactive: 4.37	inactive: -0.974	inactive: 2.56
Cc1ccc(N(CC2=NCCN2)c2cccc(O)c2)cc1 [Phentolamine Mesylate]	inactive: -1.24		inactive: -0.643
Cc1ccc(N(CC2=NCCN2)c2cccc(O)c2)cc1 [Phentolamine mesilate]		inactive: -0.218	
CCCc1c(OCc2cccn3c(=O)c(-c4nnn[nH]4)cnc23)ccc(C(C)=O)c1O	inactive: -2.53	inactive: -1.01	inactive: -1.17
CCc1cnn2c(NCc3ccc[n+]([O-])c3)cc(N3CCCC[C@H]3CCO)nc12 [Dinaciclib]	inactive: -0.902	inactive: -2.21	inactive: -2.36
COC(=O)c1cnc(Nc2cccc(Cl)c2)nc1C(F)(F)F	inactive: -0.328	inactive: 1.42	inactive: 1.04
CCN(CC)C(C)CC(=O)Nc1ccccc1 (stereo unspecified)	inactive: 0.528	inactive: -1.19	inactive: -1.04
CC(=O)OCC(COC(C)=O)OCn1cnc2cnc(N)nc21	inactive: -1.82	inactive: -0.418	inactive: -0.0183
CCCN(CCC)C(=O)C(CCC(=O)OCCCN1CCN(CCOC(=O)Cc2c(C)n(C(=O)c3ccc(Cl)cc3)c3ccc(OC)cc23)CC1)NC(=O)c1ccccc1 (stereo unspecified) [Proglumetacin]	inactive: -0.922	inactive: -0.782	inactive: 0.125
N[C@@H](Cc1c[nH]oc1=O)C(=O)O	inactive: -1.54	inactive: -0.0899	inactive: -0.743
CC1(C)OC(=O)C(OCC2CC2)=C1c1ccc(S(C)(=O)=O)cc1 [Firocoxib]	inactive: -0.899	inactive: 1.56	inactive: -1.23
CCC(=O)O[C@]1(C(=O)COC)[C@@H](C)C[C@H]2[C@@H]3CCC4=CC(=O)C=CC4(C)[C@@]3(F)[C@@H](O)CC21C (stereo partly specified)	inactive: 0.77	inactive: -0.719	inactive: 3.73
N[C@@H]1[C@H]2CN(c3nc4c(cc3F)c(=O)c(C(=O)O)cn4-c3ccc(F)cc3F)C[C@@H]12 [trovafloxacin mesilate]	inactive: -0.785	inactive: -0.594	inactive: 0.189

Some of the entries so far, in CSV form:
SMILES,TEAD-luciferase reporter activity (compound concentration: 200 nM),TEAD-luciferase reporter activity (compound concentration: 2 uM),TEAD-luciferase reporter activity (compound concentration: 10 uM)
CCCc1c(OCc2cccn3c(=O)c(-c4nnn[nH]4)cnc23)ccc(C(C)=O)c1O,inactive: -2.53,inactive: -1.01,inactive: -1.17
CC(=O)OCC(COC(C)=O)OCn1cnc2cnc(N)nc21,inactive: -1.82,inactive: -0.418,inactive: -0.0183
